{"source": "the supplement of paper PMC8728848", "binders": {"B1": {"name": "LlpA (Burkholderia cenocepacia) (protein)", "chain": "MGSSHHHHHHSSGLVPRGSHKILGSNETLSAGNVVYSDNGQYHLAMQTDGNLVVYGPTGAVWQSQTSGSGGNRAVMQGDGNLVIYRADNTAAWSSKTAHPGAFLAVQDDGNVVIYWPRPAWASNTSDPATQQSAESKYLASGSTMSAGQTVTVAQYMLVFQADGNLVLYKNGGNPIWSTGTQGKGATYAVMQSDGNFVIYAGSTALWSTKTNGANGAQLVLQSDGNLVIYAPTAAWSTKFGLVTAPTSTSTSNNGPGSGICVGVCPPHPLNGNPFSPVGVGTTGLGFPTPGYPGAAF"}}, "test_in_all_cases": "glycan array binding signal (z-score within array); higher = stronger binding", "settings_in_all_cases": "glycan notation: IUPAC condensed, linker removed", "key": {"Fuc(a1-2)Gal": {"target": "Fuc(a1-2)Gal", "method_in_brief": "(§1)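 Negative Z-scores can be read as non-binding. The Z-score is calculated within each array and then averaged across arrays of one protein sequence at different concentrations or buffers and across linkers. Arrays, 3228 in all, were curated from the Consortium for Functional Glycomics database and kept only where the protein sequence was available.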"}, "Fuc(a1-2)Gal(b1-3)GalNAc": {"target": "Fuc(a1-2)Gal(b1-3)GalNAc", "method_in_brief": "as §1"}, "[1]": {"target": "Fuc(a1-2)Gal(b1-3)GalNAc(a1-3)[Fuc(a1-2)]Gal(b1-4)Glc", "method_in_brief": "as §1"}, "[2]": {"target": "Fuc(a1-2)Gal(b1-3)GalNAc(a1-3)[Fuc(a1-2)]Gal(b1-4)GlcNAc", "method_in_brief": "as §1"}, "[3]": {"target": "Fuc(a1-2)Gal(b1-3)GalNAc(b1-3)Gal", "method_in_brief": "as §1"}, "[4]": {"target": "Fuc(a1-2)Gal(b1-3)GalNAc(b1-3)Gal(a1-4)Gal(b1-4)Glc", "method_in_brief": "as §1"}, "[5]": {"target": "Fuc(a1-2)Gal(b1-3)GalNAc(b1-4)[Neu5Ac(a2-3)]Gal(b1-4)Glc", "method_in_brief": "as §1"}, "Fuc(a1-2)Gal(b1-3)GlcNAc": {"target": "Fuc(a1-2)Gal(b1-3)GlcNAc", "method_in_brief": "as §1"}, "[6]": {"target": "Fuc(a1-2)Gal(b1-3)GlcNAc(b1-2)Man(a1-3)[Fuc(a1-2)Gal(b1-3)GlcNAc(b1-2)Man(a1-6)]Man(b1-4)GlcNAc(b1-4)GlcNAc", "method_in_brief": "as §1"}, "[7]": {"target": "Fuc(a1-2)Gal(b1-3)GlcNAc(b1-2)Man(a1-3)[Fuc(a1-2)Gal(b1-3)GlcNAc(b1-2)Man(a1-6)]Man(b1-4)GlcNAc(b1-4)[Fuc(a1-6)]GlcNAc", "method_in_brief": "as §1"}, "[8]": {"target": "Fuc(a1-2)Gal(b1-3)GlcNAc(b1-3)Gal(b1-4)Glc", "method_in_brief": "as §1"}, "[9]": {"target": "Fuc(a1-2)Gal(b1-3)GlcNAc(b1-3)GalNAc", "method_in_brief": "as §1"}, "[10]": {"target": "Fuc(a1-2)Gal(b1-3)GlcNAc(b1-3)[Fuc(a1-2)Gal(b1-3)GlcNAc(b1-6)]GalNAc", "method_in_brief": "as §1"}, "[11]": {"target": "Fuc(a1-2)Gal(b1-3)GlcNAc(b1-3)[Gal(b1-4)GlcNAc(b1-6)]Gal(b1-4)Glc", "method_in_brief": "as §1"}, "[12]": {"target": "Fuc(a1-2)Gal(b1-3)GlcNAc(b1-3)[Neu5Ac(a2-6)Gal(b1-4)GlcNAc(b1-6)]Gal(b1-4)Glc", "method_in_brief": "as §1"}, "[13]": {"target": "Fuc(a1-2)Gal(b1-3)GlcNAc6S", "method_in_brief": "as §1"}, "[14]": {"target": "Fuc(a1-2)Gal(b1-3)[Fuc(a1-4)]GlcNAc", "method_in_brief": "as §1"}, "[15]": {"target": "Fuc(a1-2)Gal(b1-3)[Fuc(a1-4)]GlcNAc(b1-2)Man(a1-3)[Fuc(a1-2)Gal(b1-3)[Fuc(a1-4)]GlcNAc(b1-2)Man(a1-3)]Man(b1-4)GlcNAc(b1-4)GlcNAc", "method_in_brief": "as §1"}, "[16]": {"target": "Fuc(a1-2)Gal(b1-3)[Fuc(a1-4)]GlcNAc(b1-2)Man(a1-3)[Fuc(a1-2)Gal(b1-3)[Fuc(a1-4)]GlcNAc(b1-2)Man(a1-6)]Man(b1-4)GlcNAc(b1-4)[Fuc(a1-6)]GlcNAc(b1-4)[Fuc(a1-6)]GlcNAc", "method_in_brief": "as §1"}, "[17]": {"target": "Fuc(a1-2)Gal(b1-3)[Fuc(a1-4)]GlcNAc(b1-3)[Fuc(a1-3)[Gal(b1-4)]GlcNAc(b1-6)]Gal(b1-4)Glc", "method_in_brief": "as §1"}, "[18]": {"target": "Fuc(a1-2)Gal(b1-3)[Fuc(a1-4)]GlcNAc(b1-3)[Gal(b1-4)GlcNAc(b1-6)]Gal(b1-4)Glc", "method_in_brief": "as §1"}, "[19]": {"target": "Fuc(a1-2)Gal(b1-4)Fuc(a1-3)]GlcNAc(b1-2)Man(a1-3)[Fuc(a1-2)Gal(b1-4)[Fuc(a1-3)]GlcNAc(b1-2)Man(a1-6)]Man(b1-4)GlcNAc(b1-4)GlcNAc", "method_in_brief": "as §1"}, "Fuc(a1-2)Gal(b1-4)Glc": {"target": "Fuc(a1-2)Gal(b1-4)Glc", "method_in_brief": "as §1"}, "Fuc(a1-2)Gal(b1-4)Glc6S": {"target": "Fuc(a1-2)Gal(b1-4)Glc6S", "method_in_brief": "as §1"}, "Fuc(a1-2)Gal(b1-4)GlcNAc": {"target": "Fuc(a1-2)Gal(b1-4)GlcNAc", "method_in_brief": "as §1"}, "[20]": {"target": "Fuc(a1-2)Gal(b1-4)GlcNAc(b1-2)Man", "method_in_brief": "as §1"}, "[21]": {"target": "Fuc(a1-2)Gal(b1-4)GlcNAc(b1-2)Man(a1-3)[Fuc(a1-2)Gal(b1-4)GlcNAc(b1-2)Man(a1-6)]Man(b1-4)GlcNAc(b1-4)GlcNAc", "method_in_brief": "as §1"}, "[22]": {"target": "Fuc(a1-2)Gal(b1-4)GlcNAc(b1-2)Man(a1-3)[Fuc(a1-2)Gal(b1-4)GlcNAc(b1-2)Man(a1-6)]Man(b1-4)GlcNAc(b1-4)[Fuc(a1-6)]GlcNAc", "method_in_brief": "as §1"}, "[23]": {"target": "Fuc(a1-2)Gal(b1-4)GlcNAc(b1-2)[Fuc(a1-2)Gal(b1-4)GlcNAc(b1-4)]Man(a1-3)[Fuc(a1-2)Gal(b1-4)GlcNAc(b1-2)Man(a1-6)]Man(b1-4)GlcNAc(b1-4)GlcNAc", "method_in_brief": "as §1"}, "[24]": {"target": "Fuc(a1-2)Gal(b1-4)GlcNAc(b1-3)Gal(b1-4)GlcNAc", "method_in_brief": "as §1"}}, "note": "This is one part of the list.", "data": [{"binder": "B1", "values": [{"measurement": "glycan array binding signal (z-score)", "setting": "Fuc(a1-2)Gal", "value": 1.82}, {"measurement": "glycan array binding signal (z-score)", "setting": "Fuc(a1-2)Gal(b1-3)GalNAc", "value": 0.122}, {"measurement": "glycan array binding signal (z-score)", "setting": "[1]", "value": 0.28}, {"measurement": "glycan array binding signal (z-score)", "setting": "[2]", "value": -0.175}, {"measurement": "glycan array binding signal (z-score)", "setting": "[3]", "value": 0.215}, {"measurement": "glycan array binding signal (z-score)", "setting": "[4]", "value": -0.064}, {"measurement": "glycan array binding signal (z-score)", "setting": "[5]", "value": 0.65}, {"measurement": "glycan array binding signal (z-score)", "setting": "Fuc(a1-2)Gal(b1-3)GlcNAc", "value": 0.011}, {"measurement": "glycan array binding signal (z-score)", "setting": "[6]", "value": 0.32}, {"measurement": "glycan array binding signal (z-score)", "setting": "[7]", "value": 0.83}, {"measurement": "glycan array binding signal (z-score)", "setting": "[8]", "value": -0.297}, {"measurement": "glycan array binding signal (z-score)", "setting": "[9]", "value": -0.128}, {"measurement": "glycan array binding signal (z-score)", "setting": "[10]", "value": -0.555}, {"measurement": "glycan array binding signal (z-score)", "setting": "[11]", "value": -0.278}, {"measurement": "glycan array binding signal (z-score)", "setting": "[12]", "value": -0.608}, {"measurement": "glycan array binding signal (z-score)", "setting": "[13]", "value": -1.48}, {"measurement": "glycan array binding signal (z-score)", "setting": "[14]", "value": -0.455}, {"measurement": "glycan array binding signal (z-score)", "setting": "[15]", "value": 0.829}, {"measurement": "glycan array binding signal (z-score)", "setting": "[16]", "value": 0.099}, {"measurement": "glycan array binding signal (z-score)", "setting": "[17]", "value": -1.54}, {"measurement": "glycan array binding signal (z-score)", "setting": "[18]", "value": -0.705}, {"measurement": "glycan array binding signal (z-score)", "setting": "[19]", "value": 1.61}, {"measurement": "glycan array binding signal (z-score)", "setting": "Fuc(a1-2)Gal(b1-4)Glc", "value": -0.279}, {"measurement": "glycan array binding signal (z-score)", "setting": "Fuc(a1-2)Gal(b1-4)Glc6S", "value": -0.487}, {"measurement": "glycan array binding signal (z-score)", "setting": "Fuc(a1-2)Gal(b1-4)GlcNAc", "value": 0.123}, {"measurement": "glycan array binding signal (z-score)", "setting": "[20]", "value": 1.56}, {"measurement": "glycan array binding signal (z-score)", "setting": "[21]", "value": -0.314}, {"measurement": "glycan array binding signal (z-score)", "setting": "[22]", "value": 1.62}, {"measurement": "glycan array binding signal (z-score)", "setting": "[23]", "value": -0.53}, {"measurement": "glycan array binding signal (z-score)", "setting": "[24]", "value": -0.678}]}]}
